Source: PubChem BioAssay AID1487 (National Center for Advancing Translational Sciences (NCATS), 2009)
Where “and” joins values, the source holds several entries; their conditions need not be identical. Identical values can stand only once. The list shows a part of the results. Shown are side measurements of this screen, not its main read-out; they come without a call. Compounds called inactive in the main read-out are mostly missing here. Words in brackets tell the shape of the fitted curve; partial curves, single points and poor fits give uncertain potencies.

Test: qHTS Assay for Modulators of Lamin A Splicing
Settings: HeLa LMNA splicing GFP/RFP minigene ratio, 48 h
Outline: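 S3 HeLa stable clones carrying a lamin A-EGFP splicing minigene plus DsRed2 were seeded at 600 cells/well in Opti-MEM with 2% FBS, pin-dosed and incubated 48 h at 37°C. Acumen cytometry (488 nm) gave the GFP/RFP total-intensity ratio.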

[1] = measured here: RFP viability control channel
[2] = measured here: GFP splicing reporter channel

| Structure (SMILES) | AC50 [1] | AC50 [2] |
| --- | --- | --- |
| Cc1ccc(C#CC[N+]2(CC#Cc3ccc(C)cc3)CCCCC2)cc1 | 0.891 µM [rising, full curve] |  |
| COc1cc2c(cc1OC)C(c1ccccc1)N(C(=O)CCl)CC2 (stereo not given) | 17.8 µM [falling, partial curve] | 10 µM [falling, partial curve] |
| Cc1c(Cl)c([N+](=O)[O-])nn1CCCC(=O)N(Cc1ccccc1)Cc1ccccc1 | 12.6 µM [rising, single point] |  |
| Cc1ccc(NC(=O)CSc2nc3ccccc3c3nc(CCn4c(C)nc5ccccc54)nn23)cc1F | 7.94 µM [falling, partial curve] | 8.91 µM [falling, partial curve, poor fit] |
| O=c1c2cc(NC(=S)NC3CC3)ccc2nc2n1CCCCC2 | 0.00501 µM [falling, full curve, poor fit] |  |
| OC(CNCc1ccc(Cl)cc1)(c1ccccc1)c1ccc(F)cc1 (stereo not given) |  | 1 µM [rising, single point] |
| COc1ccc(CNCC(O)(c2ccccc2)c2ccc(Cl)cc2)cc1 (stereo not given) | 12.6 µM [rising, single point] |  |
| CC(=O)c1ccc(N2CCN(C(=O)C3CCN(S(=O)(=O)c4cccc5nonc45)CC3)CC2)cc1 | 1.58 µM [falling, full curve] | 0.398 µM [falling, full curve, poor fit] |
| COc1ccccc1N1CCN(C(CNC(=O)C2CCCCC2)c2cccnc2)CC1 (stereo not given) | 11.2 µM [rising, partial curve] |  |
| CCOc1ccccc1NC(=O)Cn1c(=O)ccc2cc(S(=O)(=O)N3CCC(C)CC3)ccc21 |  | 11.2 µM [falling, partial curve] |
| COc1cc(CC(=O)N/N=C/c2ccccc2)c([N+](=O)[O-])cc1OC | 0.0178 µM [falling, full curve, poor fit] | 0.0158 µM [falling, full curve, poor fit] |
| Cc1nc(N)sc1-c1csc(Nc2ccc(Cl)cn2)n1 | 20 µM [rising, single point] |  |
| NC(=O)c1ccc(C(=O)c2ccc([N+](=O)[O-])cc2)cc1 | 3.16 µM [falling, partial curve] |  |
| FC(F)(F)c1ccccc1/C=N/Nc1ccccn1 | 5.62 µM [rising, single point] |  |
| COc1ccc(-c2cnc(C)o2)cc1S(=O)(=O)Nc1ccc(C)c(F)c1 | 2 µM [rising, full curve] |  |
| CN1/C(=C\C=C2/C(=O)Oc3ccccc3C2=O)C(C)(C)c2ccccc21 |  | 4.47 µM [falling, full curve, poor fit] |
| Cc1ccc(N=Nc2ccc(O)c3ncccc23)cc1 | 3.55 µM [rising, full curve] | 2.82 µM [rising, full curve] |
| O=C1OC(Nc2ccc3c(c2)OCO3)c2ccccc21 (stereo not given) | 15.8 µM [falling, partial curve, poor fit] | 3.16 µM [falling, full curve] |
| CN(C)c1ccc(/C=N/N=C(N)N)cc1[N+](=O)[O-] |  | 35.5 µM [falling, single point] |
| CCOc1ccc(CNC(=O)c2ccc3nc(Cc4ccc(OC)cc4)oc3c2)cc1OC | 0.891 µM [falling, full curve, poor fit] | 0.355 µM [falling, full curve, poor fit] |
| CC1(C)CC(=O)C2=C(C1)N=C1c3ccccc3C(=O)C1C2c1ccc(Cl)cc1 (stereo not given) | 11.2 µM [rising, partial curve] |  |
| CCCNc1nc2c(c(=O)n(C)c(=O)n2C)n1Cc1cccc(C)c1 | 7.94 µM [rising, partial curve] | 25.1 µM [rising, partial curve, poor fit] |
| Cc1ccc(-n2nnnc2Sc2ccc(S(=O)(=O)NCCN(C)C)cc2[N+](=O)[O-])cc1 | 35.5 µM [falling, single point] | 35.5 µM [falling, single point] |
| CN(C(=O)COC(=O)c1ccc2[nH]c3c(c2c1)CCCC3)C1CCS(=O)(=O)C1 (stereo not given) |  | 0.0251 µM [falling, full curve, poor fit] |
| COCC(=O)NNC(=O)c1ccc(OC)cc1 | 35.5 µM [falling, single point] |  |
| CS(=O)(=O)N1CCN(C(=O)NC2CCCCC2)CC1 | 11.2 µM [falling, partial curve, poor fit] | 11.2 µM [falling, single point] |
| CCOC(=O)C1C(=O)C=C(c2ccc(C)cc2)CC1c1ccc([N+](=O)[O-])cc1 (stereo not given) | 2.51 µM [rising, partial curve, poor fit] |  |

| Structure (SMILES) | AC50 [1] | AC50 [2] |
| --- | --- | --- |
| COc1ccc(Cn2c(C3CC3)nc3ccc(NC(=O)C4CC4)cc3c2=O)cc1 | 1.41 µM [rising, partial curve] | 1.26 µM [rising, full curve, poor fit] |
| NC(=O)C1CCN(Cc2nnnn2Cc2ccco2)CC1 | 3.98 µM [falling, full curve, poor fit] |  |
| CCOC(=O)c1cnc2ccc(F)cc2c1Nc1ccc2c(c1)OCCO2 | 35.5 µM [rising, single point] |  |
| Cc1ccc(Oc2cc(NC(=O)CCCn3nc([N+](=O)[O-])cc3C)cc([N+](=O)[O-])c2)cc1 | 35.5 µM [rising, single point] | 35.5 µM [rising, single point] |
| CN(C)C(=O)c1ccc(-c2ccc3ncnc(N(C)Cc4ccco4)c3c2)cc1 | 0.891 µM [falling, partial curve] | 12.6 µM [falling, partial curve] |
| Cc1ccc2cc(CN(CC3CCCO3)C(=S)NCc3ccco3)c(=O)[nH]c2c1C (stereo not given) | 12.6 µM [rising, partial curve] |  |
| O=C(NCC1CCCO1)c1ccccc1-c1nc(-c2ccc(F)cc2)no1 (stereo not given) | 0.708 µM [rising, full curve, poor fit] |  |
| CCOC(=O)c1ccc(NC(=O)CN2C(=O)NC3(CCCCCC3)C2=O)cc1 | 0.224 µM [falling, full curve, poor fit] |  |
| CCOC(=O)c1c(C2CC2)csc1NC(=O)COC(=O)c1ccc[n+]([O-])c1 | 12.6 µM [rising, partial curve, poor fit] |  |
| C[C@@H](C(=O)NCCc1c[nH]c2ccccc12)[C@@H]1C[C@@]1(C)[C@@H](NC(=O)OCc1ccccc1)c1ccccc1 | 12.6 µM [rising, partial curve] | 10 µM [rising, single point] |
| Cc1cc(C)nc(NNC2=CC(=O)CC(C)(C)C2)n1 | 5.62 µM [rising, partial curve] |  |
| COc1ccc(-c2nc(NC(=O)c3ccc(OCC(=O)N4CCOCC4)c(OC)c3)sc2C)cc1 | 15.8 µM [rising, single point] |  |
| CS(=O)(=O)N1CCc2cc(S(=O)(=O)N3CCN(Cc4ccc5c(c4)OCO5)CC3)ccc21 | 15.8 µM [rising, single point] | 12.6 µM [rising, partial curve] |
| COc1cc(/C=C(\C#N)c2[nH]nc(N)c2C#N)cc(OC)c1O | 35.5 µM [rising, single point] |  |
| Clc1ccc(-c2csc(=Nc3cccnc3)n2CCCn2ccnc2)cc1Cl | 25.1 µM [rising, single point] | 11.2 µM [rising, partial curve] |
| COc1cc(C(=O)NC(=S)Nc2nccs2)cc(OC)c1OC | 22.4 µM [falling, partial curve, poor fit] |  |
| COc1ccc(N2CCN(C(=O)CCS(=O)(=O)c3cc4c(cc3Cl)NC(=O)CO4)CC2)cc1 | 35.5 µM [falling, single point] | 35.5 µM [falling, single point] |
| CCC(=O)Nc1cccc(NC(=S)NC(=O)c2cccs2)c1 | 20 µM [rising, partial curve, poor fit] | 17.8 µM [rising, partial curve] |
| CCOC(=O)c1ccccc1NC(=O)CSc1nc2ncccc2[nH]1 | 8.91 µM [falling, partial curve] |  |
| CC(C)Cn1c(N)c(C(=O)COC(=O)c2ccc(F)cc2)c(=O)n(C)c1=O | 5.01 µM [rising, full curve, poor fit] |  |
| Cc1cc(C(=O)Cn2nc(C(=O)O)c3ccccc3c2=O)c(C)n1-c1ccc(F)cc1 | 2.82 µM [rising, partial curve, poor fit] |  |
| CN1CCN(CC(=O)N2c3ccccc3C(C)(c3ccccc3)CC2(C)C)CC1 (stereo not given) | 20 µM [rising, partial curve] |  |
| CCOC(=O)c1sc(NC(=O)CCN2CCN(CC)CC2)c(C(=O)OCC)c1C |  | 17.8 µM [falling, single point] |
| O=C(CN1CCC(c2nc3ccccc3s2)CC1)NCc1cccs1 | 8.91 µM [rising, partial curve] | 11.2 µM [rising, single point] |
| CCCCC(CC)COC(=O)C(C#N)=C(c1ccccc1)c1ccccc1 (stereo not given) | 5.01 µM [rising, partial curve, poor fit] |  |
| Cc1ccc(/C=c2\sc3nc(-c4cccnc4)nn3c2=O)cc1 | 20 µM [falling, single point] | 35.5 µM [falling, single point] |
| Nc1c2c(nc3ccccc13)CCCC2 | 14.1 µM [rising, single point] | 63.1 nM [falling, full curve, poor fit] and 31.6 µM [rising, single point] |
